Reference: article PMC4945075
No constants are given. Whether binding was seen depends on the method and setting. In cells and extracts the contact can be indirect. Binding can be weak; no strength is given. Sequences can lack the tags named with a protein.

Assays:
[1] = target: T1, His6-tagged cyt-RodZ (cytosolic part of RodZ) (B. subtilis); test: pull-down; His6-cyt-RodZ and S-tagged cyt-SpoIIE co-expressed in E. coli BL21 (DE3) (pETDuet); clarified lysate in 20 mM Tris-HCl pH 8.0, 150 mM NaCl on Ni Sepharose HP column, imidazole step elution; Western blot with anti-His-tag and anti-S-tag
T1 sequence: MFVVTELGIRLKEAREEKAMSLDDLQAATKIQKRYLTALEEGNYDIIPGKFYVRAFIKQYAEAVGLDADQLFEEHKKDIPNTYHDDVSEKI

[2] = target: T2, SpoIIE-3XFLAG (full length FLAG tagged SpoIIE) (B. subtilis) (UniProt P37475); test: co-IP; extracts of sporulating B. subtilis cells (2.5 hours after resuspension), membrane proteins solubilized with 2% digitonin, anti-FLAG M2 magnetic beads 1 hour at 4°C, washes with 0.1% digitonin; Western blot
T2 sequence: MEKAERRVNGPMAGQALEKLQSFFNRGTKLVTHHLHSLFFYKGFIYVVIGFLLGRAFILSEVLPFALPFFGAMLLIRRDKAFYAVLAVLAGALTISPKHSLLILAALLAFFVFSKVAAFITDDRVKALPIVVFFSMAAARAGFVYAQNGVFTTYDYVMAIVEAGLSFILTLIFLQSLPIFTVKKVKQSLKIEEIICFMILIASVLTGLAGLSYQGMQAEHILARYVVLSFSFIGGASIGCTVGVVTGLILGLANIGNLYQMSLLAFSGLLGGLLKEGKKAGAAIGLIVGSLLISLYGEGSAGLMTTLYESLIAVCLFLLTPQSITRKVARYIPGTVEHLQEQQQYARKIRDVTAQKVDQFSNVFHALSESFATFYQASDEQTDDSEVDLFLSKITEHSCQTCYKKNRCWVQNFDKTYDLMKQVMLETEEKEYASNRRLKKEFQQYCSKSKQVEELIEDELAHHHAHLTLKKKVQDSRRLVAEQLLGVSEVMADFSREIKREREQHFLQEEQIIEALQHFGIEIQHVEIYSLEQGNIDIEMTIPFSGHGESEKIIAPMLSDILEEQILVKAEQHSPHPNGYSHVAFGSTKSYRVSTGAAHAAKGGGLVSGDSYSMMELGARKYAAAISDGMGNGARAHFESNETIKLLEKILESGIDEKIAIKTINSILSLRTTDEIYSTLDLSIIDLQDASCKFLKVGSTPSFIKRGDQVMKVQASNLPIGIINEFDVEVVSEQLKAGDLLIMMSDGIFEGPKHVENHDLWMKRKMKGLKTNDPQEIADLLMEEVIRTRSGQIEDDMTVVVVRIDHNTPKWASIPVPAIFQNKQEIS

Substance | binding [1] | binding [2]
S-tagged cyt-SpoIIE (whole cytosolic part of SpoIIE, regions II+III) (B. subtilis) (domain or fragment) | binds | 
CFP-RodZ (from UniProt A0AAT9J3Y0) |  | binds
